{"source": "PubChem BioAssay AID1259308 | NCATS, 2017", "assay": "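Knock-downs that increase output of a recombinant reporter protein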 (primary screen)", "cell system": "human HEK293 embryonic kidney cells stably expressing firefly luciferase (HEK-CMV-Luc2-Hygro)", "knock-down reagent": "single siRNA against human genes, 0.8 pmol siRNA per well", "timing": "72 h", "measured": "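Luciferase light (ONE-Glo) measured on one replicate plate set and viability (CellTiter-Glo) on the other, scaled to a negative control siRNA, with robust z-scores and luciferase per cell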", "reading the numbers": "total luciferase, z-score: higher = more reporter protein produced", "call rule": "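Active when the median/MAD z-score for overall luciferase is greater than 3; a gene was taken forward for validation with new siRNAs if at least two of its three siRNAs passed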", "calls": "active = raised luciferase; inactive = no rise", "note": "The deposit covers about 59,000 reagents; this is a random part of them. About 1,510 of them (2.6%) were called active. 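Calls use total luciferase alone and ignore viability, so some active siRNAs may act by altering cell number.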 Reagents against one gene are numbered here. Not all columns of the deposit are shown."}
{"gene symbol":"ALG13","reagent":1,"total luciferase, z-score":2.05,"outcome":"inactive"}
{"gene symbol":"ALG13","reagent":2,"total luciferase, z-score":1.69,"outcome":"inactive"}
{"gene symbol":"ALG13","reagent":3,"total luciferase, z-score":-0.668,"outcome":"inactive"}
{"gene symbol":"ALG13","reagent":4,"total luciferase, z-score":-0.17,"outcome":"inactive"}
{"gene symbol":"ALG13","reagent":5,"total luciferase, z-score":0.769,"outcome":"inactive"}
{"gene symbol":"ALG13","reagent":6,"total luciferase, z-score":-0.634,"outcome":"inactive"}
{"gene symbol":"ALG13","reagent":7,"total luciferase, z-score":-0.685,"outcome":"inactive"}
{"gene symbol":"ALG13","reagent":8,"total luciferase, z-score":1.28,"outcome":"inactive"}
{"gene symbol":"ALG13","reagent":9,"total luciferase, z-score":-0.336,"outcome":"inactive"}
{"gene symbol":"CGA","reagent":1,"total luciferase, z-score":-0.188,"outcome":"inactive"}
{"gene symbol":"CGA","reagent":2,"total luciferase, z-score":-0.251,"outcome":"inactive"}
{"gene symbol":"CGA","reagent":3,"total luciferase, z-score":-0.0882,"outcome":"inactive"}
{"gene symbol":"NATD1","reagent":1,"total luciferase, z-score":0.126,"outcome":"inactive"}
{"gene symbol":"NATD1","reagent":2,"total luciferase, z-score":-1.4,"outcome":"inactive"}
{"gene symbol":"NATD1","reagent":3,"total luciferase, z-score":-1.05,"outcome":"inactive"}
{"gene symbol":"GPBAR1","reagent":1,"total luciferase, z-score":0.276,"outcome":"inactive"}
{"gene symbol":"GPBAR1","reagent":2,"total luciferase, z-score":1.34,"outcome":"inactive"}
{"gene symbol":"GPBAR1","reagent":3,"total luciferase, z-score":2.91,"outcome":"inactive"}
{"gene symbol":"DIMT1","reagent":1,"total luciferase, z-score":-1.08,"outcome":"inactive"}
{"gene symbol":"DIMT1","reagent":2,"total luciferase, z-score":-0.536,"outcome":"inactive"}
{"gene symbol":"DIMT1","reagent":3,"total luciferase, z-score":0.904,"outcome":"inactive"}
{"gene symbol":"LEO1","reagent":1,"total luciferase, z-score":-1.52,"outcome":"inactive"}
{"gene symbol":"LEO1","reagent":2,"total luciferase, z-score":2.61,"outcome":"inactive"}
{"gene symbol":"LEO1","reagent":3,"total luciferase, z-score":-0.658,"outcome":"inactive"}
{"gene symbol":"FCHO2","reagent":1,"total luciferase, z-score":1.65,"outcome":"inactive"}
{"gene symbol":"FCHO2","reagent":2,"total luciferase, z-score":0.946,"outcome":"inactive"}
{"gene symbol":"FCHO2","reagent":3,"total luciferase, z-score":0.527,"outcome":"inactive"}
{"gene symbol":"NETO2","reagent":1,"total luciferase, z-score":-0.236,"outcome":"inactive"}
{"gene symbol":"NETO2","reagent":2,"total luciferase, z-score":-1.07,"outcome":"inactive"}
{"gene symbol":"NETO2","reagent":3,"total luciferase, z-score":1.92,"outcome":"inactive"}
{"gene symbol":"PCDHA4","reagent":1,"total luciferase, z-score":-0.134,"outcome":"inactive"}
{"gene symbol":"PCDHA4","reagent":2,"total luciferase, z-score":0.013,"outcome":"inactive"}
{"gene symbol":"PCDHA4","reagent":3,"total luciferase, z-score":-0.349,"outcome":"inactive"}
